# About 7,500 (2.1%) of roughly 360,000 compounds were called active. The shares of active, inactive and inconclusive entries below differ from those in the screen. The call rests on the fitted dose curve; in most records, active means well fitted inhibition curve with a large enough effect; inconclusive means small, poorly fitted or top-dose-only effect, or effect the other way; inactive means flat fitted curve, though single readings scatter. Potencies of inconclusive entries are doubtful fits and often do not repeat.
# Assay: Nrf2 qHTS screen for inhibitors; further: nearly all actives have a fitted effect of over 60% in size
# Conditions: A549 ARE-Fluc reporter, luciferase luminescence, 18-24 h; series mostly up to 46 µM
# In short: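 Cells were seeded and rested 2 h, then exposed to compounds for 18-24 h. CellTiter-Fluor was read first as a viability measure. BugLite was added 15 min before the final luminescent read of ARE-luciferase activity in A549 cells.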
# Potency means the concentration at half of the fitted maximal effect.
row,SMILES,Potency
1,Oc1ccc(-c2nccc(-c3ccc(F)cc3)n2)cc1,"inconclusive: 20.6 µM [activator, single point]"
2,Cc1ccc(NC(=O)C2OCCc3ccccc32)cc1 (stereo not given),"inconclusive: 9.2 µM [activator, partial curve]"
3,COC(=O)C1C(=O)C2=C(CC1C)NC(C)=C(C(=O)OC1CCCC1)C2c1ccc(N(C)C)cc1 (stereo not given),"inconclusive: 29.1 µM [falling, single point]"
4,CC(C)NC(=O)c1ccc(-n2c(-c3ccccc3)cc3c2CCCCC3)cc1,"inconclusive: 23.1 µM [falling, single point]"
5,O=C(CSc1ccc2ccccc2n1)c1ccccc1,"inconclusive: 29.1 µM [activator, single point]"
6,O=C(c1ccc2c(c1)OCO2)C1CCCN(C2CCN(CCc3ccccc3)CC2)C1 (stereo not given),"inconclusive: 23.1 µM [activator, single point]"
7,CSc1cccc(N2CC(C(=O)Nc3cccc(S(=O)(=O)N4CCCC4)c3)CC2=O)c1 (stereo not given),"inconclusive: 25.9 µM [falling, single point]"
8,CCOC(=O)c1[nH]nc(-c2c(O)cc(C)cc2O)c1-c1csc(C)n1,inactive
9,Cc1ccc(Nc2c(-c3ccncc3)nc3ccc(C)cn23)cc1,"inconclusive: 29.1 µM [activator, single point]"
10,CCn1nc(C)c(/C=N/NC(=O)c2ccc3c(c2)c(C)c(C)n3Cc2ccccc2)c1C,"inconclusive: 25.9 µM [falling, partial curve, poor fit]"
11,Cc1ccc(CNC(=O)CSc2c3c(nc4cc(Cl)ccc24)CCCC3)o1,"inconclusive: 29.1 µM [falling, single point]"
12,Cc1ccc(OC(=O)Nc2ccccc2)cc1,"inconclusive: 7.31 µM [activator, partial curve]"
13,COc1cc(C(=O)NNC(=S)Nc2ccc(S(N)(=O)=O)cc2)cc(OC)c1OC,"inconclusive: 29.1 µM [activator, single point]"
14,Cc1ccc(/C=N/Nc2ncnc3nc[nH]c23)cc1,"inconclusive: 29.1 µM [activator, single point]"
15,Cc1cccc(-c2noc(-c3cc4ccccc4oc3=O)n2)c1,"inconclusive: 18.4 µM [activator, partial curve, poor fit]"
16,CN(Cc1ccccc1)c1ccc(C(CC(N)=O)NC(=O)c2ccc(Br)cc2)cc1[N+](=O)[O-] (stereo not given),"inconclusive: 18.4 µM [falling, single point]"
17,COc1ccc(CNC(=O)Cn2nnc3ccccc3c2=O)cc1,"inconclusive: 18.4 µM [activator, single point]"
18,Cc1ccc(C(CNS(=O)(=O)c2ccc(F)cc2C)N2CCN(C)CC2)cc1 (stereo not given),inactive
19,CC(C)CC(=O)N1CCC(N(CCc2ccccc2)Cc2ccccc2)CC1,"inconclusive: 25.9 µM [falling, single point]"
20,CCOC(=O)C1(CCc2ccccc2)CCN(Cc2cccc3nccnc23)CC1,"inconclusive: 16.4 µM [falling, single point]"
21,Cc1cc(NC(=O)C2CCCCC2)nc2c1c(=O)oc1ccccc12,"inconclusive: 0.92 µM [activator, partial curve, poor fit]"
22,Cc1ccc2c(Cl)c(C)c(N3CCOCC3)nc2n1,"inconclusive: 20.6 µM [falling, partial curve, poor fit]"

# Some of these compounds in order of formula weight, smallest number first:
row,SMILES,Potency
1,Oc1ccc(-c2nccc(-c3ccc(F)cc3)n2)cc1,"inconclusive: 20.6 µM [activator, single point]"
15,Cc1cccc(-c2noc(-c3cc4ccccc4oc3=O)n2)c1,"inconclusive: 18.4 µM [activator, partial curve, poor fit]"
20,CCOC(=O)C1(CCc2ccccc2)CCN(Cc2cccc3nccnc23)CC1,"inconclusive: 16.4 µM [falling, single point]"
3,COC(=O)C1C(=O)C2=C(CC1C)NC(C)=C(C(=O)OC1CCCC1)C2c1ccc(N(C)C)cc1 (stereo not given),"inconclusive: 29.1 µM [falling, single point]"
16,CN(Cc1ccccc1)c1ccc(C(CC(N)=O)NC(=O)c2ccc(Br)cc2)cc1[N+](=O)[O-] (stereo not given),"inconclusive: 18.4 µM [falling, single point]"

# Carrying on:

row,SMILES,Potency
1,O=C(OCC(CO)OC(CO)n1ccc(=O)[nH]c1=O)c1ccccc1 (stereo not given),"inconclusive: 20.6 µM [activator, partial curve]"
2,Cc1ccc(Nc2nnc(-c3ccc(N4CCOCC4)c([N+](=O)[O-])c3)c3ccccc23)cc1,"inconclusive: 7.31 µM [falling, partial curve]"
3,Cc1ccccc1CNS(=O)(=O)c1ccc2c(c1)OCCO2,"inconclusive: 32.6 µM [falling, partial curve, poor fit]"
4,O=c1[nH]c2ccc(S(=O)(=O)N3CCN(C4CCCCC4)CC3)cc2[nH]c1=O,inactive
5,CC(=O)Nc1ccc(S(=O)(=O)N2CCc3cc4c(cc3C2)OCCCO4)cc1,"inconclusive: 2.59 µM [falling, full curve]"
6,Cc1ccc2nc(-c3ccc(N4C(=N)SC5CS(=O)(=O)CC54)cc3)sc2c1 (stereo not given),"inconclusive: 18.4 µM [activator, partial curve]"
7,COc1ccccc1OCC(=O)Nc1ccc(CSc2ccccc2)cc1C,active: 10.3 µM
8,CCOC(=O)NC(=O)CSc1nc(C)cc(C)c1C#N,"inconclusive: 0.731 µM [activator, partial curve, poor fit]"
9,O=C(Nc1ccccc1Cl)/C(Cl)=C(\Cl)S(=O)c1ccccc1 (stereo not given),"inconclusive: 29.1 µM [falling, single point]"
10,CCc1nc(NCCO)c(C#N)c2c1CSC(C)(C)C2,inactive
11,COc1ccc(N(CC(=O)NCCc2ccccc2)S(=O)(=O)c2ccccc2)c(OC)c1,"inconclusive: 5.8 µM [activator, single point]"
12,CSc1nsc(SC)c1C(=O)Nc1ccc(C(C)(C)C)cc1,"inconclusive: 29.1 µM [activator, single point]"
13,COc1cccc(NC(=O)CN(C)C(=O)CCNS(=O)(=O)c2ccc(C)cc2)c1,inactive
14,O=C(Nc1cccnc1)c1ccc(COc2ccccc2Cl)o1,"inconclusive: 18.4 µM [falling, single point]"
15,CCc1ccc(/C=C/C(=O)c2cc(Br)ccc(=O)c2O)cc1,active: 7.31 µM
16,CC(NC(=O)c1ccccc1)C(=O)NNC(=O)c1ccccc1Cl (stereo not given),inactive
17,COc1ccc(C)cc1-n1nnnc1SCn1nnc2ccccc2c1=O,"inconclusive: 2.91 µM [falling, full curve]"
18,CN(C)c1ccc2c(c1)C(=NO)c1ccccc1-2,"inconclusive: 29.1 µM [activator, single point]"
19,NC(=O)COc1cc2oc(=O)c3c(c2cc1Cl)CCCC3,"inconclusive: 16.4 µM [falling, partial curve, poor fit]"
20,CCOc1ccc(C(=O)Nc2ccc(C(F)(F)F)n(C)c2=O)cc1,"inconclusive: 1.3 µM [activator, full curve, poor fit]"
21,c1ccc(CSc2ccc(-c3cccs3)nn2)cc1,"inconclusive: 9.2 µM [activator, partial curve]"
22,COc1cc2c(cc1O)CCN(C(=O)CSc1nncn1C)[C@@H]2C,"inconclusive: 29.1 µM [activator, single point]"

row,SMILES,Potency
1,COc1cc(SC)ccc1C(=O)Nc1nccs1,"inconclusive: 3.66 µM [activator, partial curve]"
2,Cc1cccc(C)c1OCC(=O)Nc1cccc(C(=O)O)c1,"inconclusive: 7.31 µM [activator, partial curve]"
3,CCCC(=O)NCCc1cc2c(C)ccc(C)c2[nH]c1=O,"inconclusive: 3.26 µM [falling, full curve]"
4,Cc1ccc(-c2nnc(SCCC(=O)N3CCOCC3)o2)cc1,"inconclusive: 25.9 µM [falling, partial curve, poor fit]"
5,CCCCN(CCCC)S(=O)(=O)c1ccc(SCC(=O)OCC)c([N+](=O)[O-])c1,"inconclusive: 25.9 µM [falling, partial curve, poor fit]"
6,O=C(CSc1nc(-c2ccccc2)cs1)NC(=O)NCc1ccco1,"inconclusive: 20.6 µM [falling, single point]"
7,O=S(=O)(NC1CCCCC1N1CCC(O)CC1)c1ccccc1 (stereo not given),inactive
8,CC1(C)CC(=O)c2sc(NS(=O)(=O)c3ccc(Br)cc3)nc2C1,"inconclusive: 23.1 µM [falling, partial curve, poor fit]"
9,COc1ccc(-n2ncc(N(C)n3cccc3)c(Cl)c2=O)cc1,"inconclusive: 4.61 µM [activator, partial curve]"
10,CCN(C(=O)c1cn(C)c(=O)c2ccccc12)c1ccccc1F,"inconclusive: 1.46 µM [activator, partial curve, poor fit]"
11,CC(=O)Nc1ccc(-c2cn3c(n2)SCC3)cc1,"inconclusive: 5.17 µM [activator, partial curve]"
12,CCO[C@@H]1OC(C(=O)NCc2nc3ccccc3[nH]2)=C[C@H](C(C)(C)C)[C@H]1CCCO,inactive
13,CCN1CCN(c2ccc(NS(=O)(=O)c3c(C)nc4sccn4c3=O)cc2Cl)CC1,"inconclusive: 14.6 µM [falling, single point]"
14,O=C(COc1cccnc1[N+](=O)[O-])N1CCN(S(=O)(=O)c2ccccc2)CC1,inactive
15,N/C(=N\S(=O)(=O)c1cc(C(F)(F)F)cc(C(F)(F)F)c1)c1ccc(Cl)cc1,"inconclusive: 14.6 µM [falling, partial curve, poor fit]"
16,COc1ccc(C(=O)CC2(O)C(=O)N(Cc3ccccc3Cl)c3ccccc32)cc1 (stereo not given),"inconclusive: 29.1 µM [falling, single point]"
17,COc1ccc(CNC(=O)CCC(=O)N2CCSc3ccccc32)cc1,"inconclusive: 29.1 µM [activator, single point]"
18,COc1ccc(C2NC(=O)CS2)cc1 (stereo not given),"inconclusive: 14.6 µM [activator, partial curve, poor fit]"
19,COc1ccc(-n2c(SC)nnc2-c2c[nH]c3ccccc23)cc1,"inconclusive: 1.84 µM [falling, partial curve, poor fit]"
20,CC(C)(CNC(=O)CO/N=C1/C=C2CCC3C(C(O)C[C@@]4(C)C3CC[C@]4(O)C(=O)CO)[C@@]2(C)CC1)C(O)C(=O)O (stereo not given in full),active: 1.84 µM
21,COc1cccc(-c2cc(C(=O)Nc3cc(OC)c(OC)c(OC)c3)on2)c1,inactive

# From PubChem BioAssay AID504444 (National Center for Advancing Translational Sciences (NCATS), 2011)
